Data published in publication PMC4521584.
Numbering of substitutions follows the chain as printed. For at least one entry, the source does not settle the construct or the ends of the probe. For some of these results: Weaker means in comparison with the reference protein, sequence or condition of that experiment. For some of these results: At least one verdict was read from the data and is not stated in words by the source. For some of these results: Protein sequences can lack the tags named with them.

The chains behind the UniProt entries cited, without tags or fusion partners. Where a name states a change or a piece, a line headed by the entry shows the natural chain unless it says otherwise.
UniProt P23909: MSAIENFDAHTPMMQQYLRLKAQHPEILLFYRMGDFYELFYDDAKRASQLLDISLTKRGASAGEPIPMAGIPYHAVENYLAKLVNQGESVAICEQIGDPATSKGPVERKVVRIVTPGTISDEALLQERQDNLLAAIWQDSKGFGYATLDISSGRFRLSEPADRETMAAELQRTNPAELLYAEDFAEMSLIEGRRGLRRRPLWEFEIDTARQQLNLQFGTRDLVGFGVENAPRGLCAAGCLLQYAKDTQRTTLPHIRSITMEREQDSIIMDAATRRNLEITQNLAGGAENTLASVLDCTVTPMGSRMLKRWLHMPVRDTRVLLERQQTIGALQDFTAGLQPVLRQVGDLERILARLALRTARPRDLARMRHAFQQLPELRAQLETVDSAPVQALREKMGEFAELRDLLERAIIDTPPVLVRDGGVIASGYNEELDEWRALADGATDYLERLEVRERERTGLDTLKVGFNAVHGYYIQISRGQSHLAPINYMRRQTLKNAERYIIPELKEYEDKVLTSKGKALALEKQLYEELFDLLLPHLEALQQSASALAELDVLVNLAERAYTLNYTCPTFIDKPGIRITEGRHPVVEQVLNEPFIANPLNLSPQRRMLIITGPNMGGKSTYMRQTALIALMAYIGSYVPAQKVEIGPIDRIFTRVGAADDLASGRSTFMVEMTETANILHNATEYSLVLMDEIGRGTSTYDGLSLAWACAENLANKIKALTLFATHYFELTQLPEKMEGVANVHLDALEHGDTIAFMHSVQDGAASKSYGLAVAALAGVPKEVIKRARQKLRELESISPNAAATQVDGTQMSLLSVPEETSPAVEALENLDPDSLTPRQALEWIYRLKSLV

Experiments:
[1] = test system: MutS P595A/I597A/M759D + MutL WT; test: SPR; details: 1 mM ATP, end-blocked, reduced MutS/MutL complex formation; SPR: 25 mM Hepes pH 7.5, 150 mM KCl, 5 mM MgCl2, 1 mM DTT, 0.05% Tween-20, 1 mM ATP (+20% glycerol for MutL-MutS assay); recombinant protein; protein details: His6
MutS D835R 449C-AF594 = MutS D835R 449C-AF594 (UniProt P23909); test: FRET (SYTOX Blue DNA to protein); details: with and without 1 mM ATP, DNA moves away from 449; FRET: 25 mM Hepes pH 7.2, 150 mM KCl, 5 mM MgCl2; recombinant protein; residues 1-853; protein details: His, Alexa Fluor 594
MutS D835R A336C-AF594 = MutS D835R A336C-AF594 (UniProt P23909); test: FRET (SYTOX Blue DNA to protein); details: with and without 1 mM ATP, DNA approaches 336; FRET: 25 mM Hepes pH 7.2, 150 mM KCl, 5 mM MgCl2; recombinant protein; residues 1-853; protein details: His, Alexa Fluor 594
MutL R266E (full length) = target: T1, MutL R266E (full length) (UniProt P23367); test: fluorescence polarization; details: 50 mM KCl, 10% glycerol, effect most pronounced in full-length context; FP: same but 50 mM KCl, no ATP (+10% glycerol for full-length MutL); recombinant …; residues 1-615; protein details: His; label: 5' TAMRA
T1 sequence (looked up): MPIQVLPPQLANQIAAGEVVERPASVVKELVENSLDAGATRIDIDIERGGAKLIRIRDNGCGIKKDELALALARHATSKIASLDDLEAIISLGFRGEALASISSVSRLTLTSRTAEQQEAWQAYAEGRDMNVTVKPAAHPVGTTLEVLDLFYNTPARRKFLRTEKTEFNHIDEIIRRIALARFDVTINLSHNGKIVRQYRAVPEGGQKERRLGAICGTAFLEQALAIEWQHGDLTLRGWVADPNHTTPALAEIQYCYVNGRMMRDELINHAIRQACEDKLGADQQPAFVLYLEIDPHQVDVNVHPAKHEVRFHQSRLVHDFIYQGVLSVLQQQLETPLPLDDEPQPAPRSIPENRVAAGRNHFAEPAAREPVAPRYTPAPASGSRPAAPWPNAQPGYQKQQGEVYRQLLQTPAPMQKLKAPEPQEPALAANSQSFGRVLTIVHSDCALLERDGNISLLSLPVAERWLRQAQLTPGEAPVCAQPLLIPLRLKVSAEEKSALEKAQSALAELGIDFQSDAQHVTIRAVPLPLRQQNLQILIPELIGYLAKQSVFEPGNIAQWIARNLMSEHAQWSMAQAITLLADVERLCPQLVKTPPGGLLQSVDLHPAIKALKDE

MutL WT = target: T2, MutL WT (UniProt P23367); test: fluorescence polarization; details: 50 mM KCl, 10% glycerol; FP: same but 50 mM KCl, no ATP (+10% glycerol for full-length MutL); recombinant protein; residues 1-615; protein details: His6; label: 5' TAMRA
T2 sequence (looked up): T1 sequence (looked up) with E266R

MutLLN40 N131C = target: T3, MutLLN40 N131C (UniProt P23367); test: fluorescence polarization; details: 50 mM KCl; FP: same but 50 mM KCl, no ATP (+10% glycerol for full-length MutL); recombinant protein; protein details: His; label: 5' TAMRA
T3 sequence (looked up, limits assumed): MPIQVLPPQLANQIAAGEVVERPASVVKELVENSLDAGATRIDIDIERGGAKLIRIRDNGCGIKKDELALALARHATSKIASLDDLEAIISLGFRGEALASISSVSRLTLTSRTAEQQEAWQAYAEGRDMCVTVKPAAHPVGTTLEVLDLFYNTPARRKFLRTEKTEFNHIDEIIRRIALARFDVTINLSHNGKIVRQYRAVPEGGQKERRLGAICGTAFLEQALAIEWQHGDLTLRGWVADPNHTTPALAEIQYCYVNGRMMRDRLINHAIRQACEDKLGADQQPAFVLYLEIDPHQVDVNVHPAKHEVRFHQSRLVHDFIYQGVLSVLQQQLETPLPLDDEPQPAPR

MutLLN40 N131C R266E = target: T4, MutLLN40 N131C R266E (UniProt P23367); test: fluorescence polarization; details: 50 mM KCl; FP: same but 50 mM KCl, no ATP (+10% glycerol for full-length MutL); recombinant protein; protein details: His; label: 5' TAMRA
T4 sequence (looked up, limits assumed): T3 sequence (looked up, limits assumed) with R266E

Sequence: AAACAGGCTTAGGCTGGAGCTGAAGCTTAGCTTAGGATCATCGAGGATCGAGCTCGGTGCAATTCAGCGGTACCCAATTCGCCCTATAGGCATCCAGGTT / AACCTGGATGCCTATAGGGCGAATTGGGTACCGCTGAATTGCACCGAGCTTGATCCTCGATGATCCTAAGCTAAGCTTCAGCTCCAGCCTAAGCCTGTTT [100-bp G:T mismatch DNA]
- binding result [1]: binds more weakly

Sequence: AATTGCACCGAGCTTGATCCTCGATGATCC / GGATCATCGAGGATCGAGCTCGGTGCAATT [GT30, end-blocked]
- binding result (MutS D835R 449C-AF594): binds
- binding result (MutS D835R A336C-AF594): binds

Sequence: ATAGGACGCTGACACTGGTGCTTGGCAGCTTCTAATTCGAT (double strand) [41-bp homoduplex, TAMRA]
- binding result (MutL R266E (full length)): binds more weakly
- binding result (MutL WT): binds
- binding result (MutLLN40 N131C): binds
- binding result (MutLLN40 N131C R266E): binds more weakly
